Results taken from PubChem BioAssay AID956 (National Center for Advancing Translational Sciences (NCATS), 2007).
The inconclusive results got no clear call from the source; some entries with a clear call stand among them for comparison. Potencies of inconclusive entries are doubtful fits and often do not repeat. Activity calls are given as the source filed them. The call rests on the fitted dose curve.

Protein sequences, listed by entry. Tags and fused reporters are not part of them.
UniProt P05067, whole entry, looked up: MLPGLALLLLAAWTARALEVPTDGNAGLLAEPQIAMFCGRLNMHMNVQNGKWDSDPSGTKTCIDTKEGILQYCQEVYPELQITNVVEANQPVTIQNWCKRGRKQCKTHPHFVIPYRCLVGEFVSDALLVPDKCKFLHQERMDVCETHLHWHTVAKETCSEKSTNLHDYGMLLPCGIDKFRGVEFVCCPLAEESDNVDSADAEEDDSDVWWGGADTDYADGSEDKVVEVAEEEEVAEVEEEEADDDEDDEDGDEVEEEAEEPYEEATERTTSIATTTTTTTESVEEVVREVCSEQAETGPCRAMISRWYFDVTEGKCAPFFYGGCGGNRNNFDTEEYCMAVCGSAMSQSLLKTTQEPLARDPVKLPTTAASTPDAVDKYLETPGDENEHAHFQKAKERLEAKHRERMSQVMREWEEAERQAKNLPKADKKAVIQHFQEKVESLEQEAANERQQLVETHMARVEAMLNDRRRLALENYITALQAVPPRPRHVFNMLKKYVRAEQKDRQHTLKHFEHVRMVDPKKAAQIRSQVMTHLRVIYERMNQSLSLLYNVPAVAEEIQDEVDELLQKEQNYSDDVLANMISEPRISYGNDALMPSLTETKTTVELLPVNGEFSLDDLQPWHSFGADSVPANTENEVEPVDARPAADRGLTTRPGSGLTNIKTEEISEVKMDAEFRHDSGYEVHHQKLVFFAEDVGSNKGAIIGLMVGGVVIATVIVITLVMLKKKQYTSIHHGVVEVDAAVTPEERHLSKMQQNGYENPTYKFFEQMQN

Each compound was assayed against Amyloid-beta precursor protein (Homo sapiens) (UniProt P05067) (assay: Beta amyloid ThS binding assay). Details: Abeta1-42 fibrillization, thioflavin S fluorescence, overnight 37 C.
Experimental: NIH Molecular Libraries Screening Centers Network [MLSCN] NIH Chemical Genomics Center [NCGC] MLSCN Grant: 1 X01 MH079825-01 Assay Provider: Jeffrey A. Kuret, Ohio State University NCGC Assay Overview: Alzheimer disease is characterized by the accumulation of proteinacious aggregates comprised of tau and beta-amyloid. The protein components of each lesion can be induced to form filaments under experimentally tractable times when incubated in vitro with anionic inducers such as alkyl sulfate detergents or fatty acids. […] Here we describe the in vitro fibrillization of beta-amyloid 1-42 (Abeta1-42). Abeta1-42 proteins were induced to form filaments by incubation overnight at 37 C in the presence of arachidonic acid. A commonly used fluorescent probe for cross beta-sheet structure, Thioflavin S (ThS), was also added to the reactions. […] Small molecules capable of ThS displacement or antagonizing fibrillization result in a decrease in ThS fluorescence, allowing determination of binding affinities for molecules screened.
NCGC Assay Protocol Summary Human Beta amyloid peptide 1-42 (American Peptide Co., Sunnyvale, CA) was resuspended in hexafluoroisopropanol (by vortexing in a glass vial) to a final concentration of 1 mM. The solvent was then completely evaporated under a slow stream of argon. The remaining residue was dissolved in DMSO to a final concentration of 2.5 mM, then sonicated for 10 min using setting 3 (model 100, Fisher Scientific). The assay was performed in 96-well round bottom opaque plates (VWR, West Chester, PA) in 100 uL final volume. Beta amyloid peptide 1-42 was diluted to 5 uM in assembly buffer (10 mM HEPES, pH 7.4, 100 mM NaCl, 5 mM dithiothreitol) containing 50 uM arachidonic acid inducer. ThS probe was then added to a final concentration of 10 uM with test compounds assayed at nine 3-fold dilutions beginning at 10 uM final concentration. Each compound was tested at least twice in separate assays. Controls without protein or without compound were included on each plate. After shaking 2 min to promote mixing, plates were covered with self-adhesive aluminum foil and incubated overnight at 37 C. Fluorescence (ex = 440 nm; em = 485 nm) was measured after brief shaking (10 s) in a FlexStation plate reader (Molecular Devices, Sunnyvale, CA) operated at sensitivity 10, automatic PMT. […] 28(3), 251-60.

SMILES | Potency | outcome
Cc1ccc2nc(-c3ccc(N=Nc4cc(S(=O)(=O)O)c5ccccc5c4O)cc3)sc2c1S(=O)(=O)O | inconclusive: 13.4 µM | –
COc1ccc2nc(N=Nc3ccc(N(C)C)cc3)sc2c1 | active: 0.1 µM | –
Nc1ccc2nc(-c3ccc(Cl)cc3)[nH]c2c1 | inconclusive: 55.6 µM | –
CN(C)c1ccc(/C=C2/C(=O)Nc3ccccc32)cc1 | active: 0.67 µM | –
C=CCOC(=O)C(C#N)c1nc2ccccc2nc1N1CCN(c2ccccc2OC)CC1 (stereo not drawn) | active: 1.13 µM | –
CN1c2cccc3cccc(c23)N(C)C1(C)C | inconclusive: 62.8 µM | –
Cc1cc(NC(=O)c2cc3nc(C4CC4)cc(C(F)(F)F)n3n2)no1 | inconclusive: 23.7 µM | –
CCOc1cc2[nH]c(=O)n(CCCCC(=O)NC3CCCCC3)c(=O)c2cc1OCC | – | inactive

Some of the entries so far, with tabs:
SMILES	Potency	outcome
Cc1cc(NC(=O)c2cc3nc(C4CC4)cc(C(F)(F)F)n3n2)no1	inconclusive: 23.7 µM	–
CCOc1cc2[nH]c(=O)n(CCCCC(=O)NC3CCCCC3)c(=O)c2cc1OCC	–	inactive
